“Also recorded” adds a separate entry of the source. At least one peptide structure holds a part that was inferred or is arguable (an end, a ring closure or a residue). Some compounds share one wording; it may come from a single statement. Ends that are not written are not given here.
Tests used:
primary lung fibroblasts [1] = experiment: Scratch assay, TGF-β-induced fibroblast migration; type: cell-based, human; conditions: 100 ng/mL peptide + 10 ng/mL TGF-β, 24 hours
Description: Next, studies were performed to evaluate the effect of IP-10 related peptides on migration of lung fibroblasts in response to TGF-β. Primary lung fibroblasts from healthy patients were plated in 24-well plates in complete medium and incubated overnight. The next day, the medium was changed to quiescent medium and cells were incubated in this medium for 24 hours. The following day, a plus-shaped scratch was made across the cells using a 1000 μL pipette tip. An image was taken at a location that could be identified later. After imaging, cells were either left untreated, treated with 100 ng/mL peptide alone, treated with 10 ng/mL TGF-β, or treated with peptide and TGF-β and incubated for 24 hours. At the end of the incubation time, the cells were imaged in the same location as in the original image to visualize closure of the scratch. The denuded area was calculated using ImageJ software and the percent wound closure was calculated for each treatment group.

primary lung fibroblasts [2] = experiment: qPCR of pro-fibrotic mRNAs in primary lung fibroblasts; type: cell-based, human; conditions: 24 h
Description: The next day, the medium was changed to quiescent medium and the cells were incubated in this medium for 24 hours. The following day, cells were either left untreated, treated with 10 ng/mL or 100 ng/mL of IP-10-1 (SEQ ID NO: 2), IP-10-2 (SEQ ID NO: 3) or IP-10-3 (SEQ ID NO: 4) peptide, treated with 10 ng/mL TGF-β, or treated with peptide and TGF-β for 24 hours. Total RNA was extracted using the Qiagen miRNeasy kit (Qiagen) and treated with DNase1, according to the manufacturer's instructions. RNA was then quantified and converted to cDNA using the Clontech RNA to cDNA EcoDry Double Primed Premix (Takara). qPCR was performed using PowerUp Sybr Green (Invitrogen) on an Applied Biosystems Quant Studio 3 instrument. Primers were from IDT and were designed using IDT Primer Quest and NCBI Primer Blast tools. The delta-delta Ct method was used to determine relative expression. GAPDH was used as a housekeeping gene.

[3] = 10 ng/mL peptide + 10 ng/mL TGF-β
[4] = 100 ng/mL peptide + 10 ng/mL TGF-β

Sequence | TGF-β-mediated induction in fibroblast migration (wound closure) (primary lung fibroblasts [1]) | TGF-β induction of mRNAs for TNC, COL1A1, DCN, FN1 and αSMA (overall), peptide with TGF-β (primary lung fibroblasts [2]; [3]) | COL1A1 mRNA expression, peptide with TGF-β (primary lung fibroblasts [2]; [4]) | DCN mRNA expression, peptide with TGF-β (primary lung fibroblasts [2]; [4]) | FN1 mRNA expression, peptide with TGF-β (primary lung fibroblasts [2]; [4]) | TNC mRNA expression, peptide with TGF-β (primary lung fibroblasts [2]; [4]) | αSMA mRNA expression, peptide with TGF-β (primary lung fibroblasts [2]; [4]) | COL1A1 mRNA expression, peptide alone (primary lung fibroblasts [2]; 100 ng/mL) | DCN mRNA expression, peptide alone (primary lung fibroblasts [2]; 100 ng/mL) | FN1 mRNA expression, peptide alone (primary lung fibroblasts [2]; 100 ng/mL) | TNC mRNA expression, peptide alone (primary lung fibroblasts [2]; 100 ng/mL) | αSMA mRNA expression, peptide alone (primary lung fibroblasts [2]; 100 ng/mL) | DCN mRNA expression, peptide alone (primary lung fibroblasts [2]; 10 ng/mL) | FN1 mRNA expression, peptide alone (primary lung fibroblasts [2]; 10 ng/mL) | TNC mRNA expression, peptide alone (primary lung fibroblasts [2]; 10 ng/mL) | αSMA mRNA expression, peptide alone (primary lung fibroblasts [2]; 10 ng/mL) | also measured
PESRVIKNLLRVVSKEKSRRSP [IP-10-2] | did not affect | dramatically inhibited; also recorded: substantially reduced the induction | potently inhibited; also recorded: prevented induction | decreased expression | potently inhibited; also recorded: prevented induction | potently inhibited; also recorded: prevented induction | potently inhibited; also recorded: prevented induction | increased expression | enhanced its expression; also recorded: increased expression | increased expression | increased expression | increased expression |  |  |  |  | gene expression (pro-fibrotic mRNAs overall), peptide alone (primary lung fibroblasts [2]; 10 ng/mL): little changes in gene expression
PESKVIKNLLKVASKERSKRSP [IP-10-1] | did not affect | dramatically inhibited | potently inhibited; also recorded: reduced the induction | decreased expression; also recorded: reduced levels | potently inhibited; also recorded: reduced the induction | potently inhibited; also recorded: reduced the induction | potently inhibited; also recorded: reduced the induction | no effect | decreased expression; also recorded: reduced the level | no effect | no effect | no effect | increased expression of TNC, DCN, FN1, and aSMA to some extent; also recorded: induced mRNA expression | increased expression of TNC, DCN, FN1, and aSMA to some extent; also recorded: induced mRNA expression | increased expression of TNC, DCN, FN1, and aSMA to some extent; also recorded: induced mRNA expression | increased expression of TNC, DCN, FN1, and aSMA to some extent; also recorded: induced mRNA expression | COL1A1 mRNA expression, peptide with TGF-β (primary lung fibroblasts [2]; [3]): significant reduction in expression; DCN mRNA expression, peptide with TGF-β (primary lung fibroblasts [2]; [3]): significant reduction in expression; FN1 mRNA expression, peptide with TGF-β (primary lung fibroblasts [2]; [3]): significant reduction in expression; TNC mRNA expression, peptide with TGF-β (primary lung fibroblasts [2]; [3]): significant reduction in expression; αSMA mRNA expression, peptide with TGF-β (primary lung fibroblasts [2]; [3]): significant reduction in expression; COL1A1 mRNA expression, peptide alone (primary lung fibroblasts [2]; 10 ng/mL): induced mRNA expression
FAKAIKNFAKAVAKFA [IP-10-3, FAKAIKNFAKAVAKFA] | significantly decreased back to the level of untreated cells; also recorded: reduction in migration rate | dramatically inhibited; also recorded: substantially reduced the induction | slightly decreased expression |  |  | slightly decreased expression | inhibited the TGF-β-mediated increase; also recorded: slightly decreased expression | no effect | no effect | no effect | no effect | no effect | induced expression of TNC and DCN a small amount; also recorded: induction in expression | induction in expression | induced expression of TNC and DCN a small amount; also recorded: induction in expression | induction in expression | 

From patent US12465630B2, “Small peptide compositions and uses thereof” (University of Pittsburgh—Of the Commonwealth System of …, priority 2018, dated 2025)
